Here are results for one sequence from doi:10.1101/2021.12.31.471205.

Amino acid sequences for entries named in this document (tags omitted). A change or cut given only in a name is not applied to a line headed by its entry.
UniProt P55771: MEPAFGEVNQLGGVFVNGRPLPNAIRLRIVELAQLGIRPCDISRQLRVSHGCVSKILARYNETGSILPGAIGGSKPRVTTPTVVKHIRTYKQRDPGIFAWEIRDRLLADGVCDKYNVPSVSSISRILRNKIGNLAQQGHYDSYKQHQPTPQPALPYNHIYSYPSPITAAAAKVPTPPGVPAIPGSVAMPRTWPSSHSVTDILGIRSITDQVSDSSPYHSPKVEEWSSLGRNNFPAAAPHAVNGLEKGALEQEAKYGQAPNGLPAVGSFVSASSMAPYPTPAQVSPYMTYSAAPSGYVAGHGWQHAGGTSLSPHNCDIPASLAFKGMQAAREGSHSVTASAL

In the series the target is PAX9 wild type (Homo sapiens) (UniProt P55771). The series can be described thus: EMSA with anti-c-Myc supershift. To be noted: 6 ug nuclear lysate; protein in an extract; residues 1-341. A general note: In EMSA bound probe runs differently from free probe, usually more slowly.

Construct, isoform or probe ends are uncertain for at least one entry. At least one result comes from cells or an extract, where the contact may be indirect.

“CACCGCACGATTAGCACCGTTCCGCTCAGGCTGTCCCCC / CACGGGACAGCCTGAGCGGAACGGTGCTAATCGTGCGGT [e5 probe (39-mer)]”: the binding result is reported as “binds”.
